The mice bore no tumour; each value counts animals alive of those treated. Counts of survivors are from the toxicity check (mostly the fifth day) where no day follows; animals may have died later. Schedule codes are those of the source, taken here to give the interval after Q, in days (D) or hours (H), and the number of doses after X. Some entries were tested several times; the values are given in rising order.
Test system: B6D2F1 mice, nontumored toxicity test, survival
Assay: NCI In Vivo Anticancer Drug Screen. Data for tumor model Nontumored Animals (Toxicity Test) in B6D2F1 (BDF1) mice
Settings: vehicle: saline

**Q.** For `N[C@H](C(=O)O)[C@@H]1CC(Cl)=NO1`, which survivor count (dose: 0.19 mg/kg/injection, schedule: Q03HX024 (ip)) is on record?
**A.** 8 of 8

**Q.** And the survivor count (dose: 0.25 mg/kg/injection, schedule: Q01DX009 (ip))?
**A.** 8 of 8

**Q.** What about the survivor count (dose: 0.39 mg/kg/injection, schedule: Q01DX009 (ip)) of the same molecule?
**A.** 8 of 8

**Q.** And the survivor count (dose: 0.39 mg/kg/injection, schedule: Q03HX008 (ip))?
**A.** 8 of 8

**Q.** What about the survivor count (dose: 0.39 mg/kg/injection, schedule: Q03HX016 (ip)) of the same molecule?
**A.** 8 of 8

**Q.** What about the survivor count (dose: 0.39 mg/kg/injection, schedule: Q03HX024 (ip)) of the same molecule?
**A.** 8 of 8

**Q.** And the survivor count (dose: 0.5 mg/kg/injection, schedule: Q01DX009 (ip))?
**A.** 8 of 8

**Q.** And the survivor count (dose: 0.75 mg/kg/injection, schedule: Q01DX009 (ip))?
**A.** 5 of 5

**Q.** And the survivor count (dose: 0.78 mg/kg/injection, schedule: Q01DX009 (ip))?
**A.** 8 of 8

**Q.** What about the survivor count (dose: 0.78 mg/kg/injection, schedule: Q03HX008 (ip)) of the same molecule?
**A.** 8 of 8

**Q.** What about the survivor count (dose: 0.78 mg/kg/injection, schedule: Q03HX016 (ip)) of the same molecule?
**A.** 8 of 8

**Q.** And the survivor count (dose: 0.78 mg/kg/injection, schedule: Q03HX024 (ip))?
**A.** 8 of 8

**Q.** What about the survivor count (dose: 1.0 mg/kg/injection, schedule: Q01DX009 (ip)) of the same molecule?
**A.** 7 of 7 and 8 of 8

**Q.** What about the survivor count (dose: 1.5 mg/kg/injection, schedule: Q01DX009 (ip)) of the same molecule?
**A.** 3 of 4

**Q.** And the survivor count (dose: 1.56 mg/kg/injection, schedule: Q01DX009 (ip))?
**A.** 8 of 8

**Q.** What about the survivor count (dose: 1.56 mg/kg/injection, schedule: Q03HX008 (ip)) of the same molecule?
**A.** 8 of 8

**Q.** And the survivor count (dose: 1.56 mg/kg/injection, schedule: Q03HX016 (ip))?
**A.** 8 of 8

**Q.** And the survivor count (dose: 1.56 mg/kg/injection, schedule: Q03HX024 (ip))?
**A.** 7 of 7

**Q.** And the survivor count (dose: 2.0 mg/kg/injection, schedule: Q01DX009 (ip))?
**A.** 8 of 8

**Q.** And the survivor count (dose: 3.0 mg/kg/injection, schedule: Q01DX009 (ip))?
**A.** 5 of 5

**Q.** And the survivor count (dose: 3.12 mg/kg/injection, schedule: Q01DX009 (ip))?
**A.** 8 of 8

**Q.** And the survivor count (dose: 3.12 mg/kg/injection, schedule: Q03HX008 (ip))?
**A.** 8 of 8

**Q.** And the survivor count (dose: 3.12 mg/kg/injection, schedule: Q03HX016 (ip))?
**A.** 8 of 8

**Q.** What about the survivor count (dose: 3.12 mg/kg/injection, schedule: Q03HX024 (ip)) of the same molecule?
**A.** 8 of 8

**Q.** And the survivor count (dose: 4.0 mg/kg/injection, schedule: Q01DX009 (ip))?
**A.** 7 of 8 and 8 of 8

**Q.** And the survivor count (dose: 6.0 mg/kg/injection, schedule: Q01DX009 (ip))?
**A.** 5 of 5

**Q.** And the survivor count (dose: 6.25 mg/kg/injection, schedule: Q01DX009 (ip))?
**A.** 8 of 8

**Q.** What about the survivor count (dose: 6.25 mg/kg/injection, schedule: Q03HX008 (ip)) of the same molecule?
**A.** 8 of 8

**Q.** And the survivor count (dose: 6.25 mg/kg/injection, schedule: Q03HX016 (ip))?
**A.** 8 of 8

**Q.** And the survivor count (dose: 6.25 mg/kg/injection, schedule: Q03HX024 (ip))?
**A.** 8 of 8

**Q.** What about the survivor count (dose: 6.25 mg/kg/injection, schedule: Q04DX003 (ip)) of the same molecule?
**A.** 8 of 8

**Q.** And the survivor count (dose: 8.0 mg/kg/injection, schedule: Q01DX009 (ip))?
**A.** 8 of 8

**Q.** What about the survivor count (dose: 12.0 mg/kg/injection, schedule: Q01DX009 (ip)) of the same molecule?
**A.** 5 of 5

**Q.** And the survivor count (dose: 12.5 mg/kg/injection, schedule: Q01DX001 (ip))?
**A.** 8 of 8

**Q.** And the survivor count (dose: 12.5 mg/kg/injection, schedule: Q01DX009 (ip))?
**A.** 8 of 8

**Q.** What about the survivor count (dose: 12.5 mg/kg/injection, schedule: Q03HX008 (ip)) of the same molecule?
**A.** 8 of 8

**Q.** And the survivor count (dose: 12.5 mg/kg/injection, schedule: Q03HX016 (ip))?
**A.** 8 of 8

**Q.** And the survivor count (dose: 12.5 mg/kg/injection, schedule: Q03HX024 (ip))?
**A.** 8 of 8

**Q.** What about the survivor count (dose: 12.5 mg/kg/injection, schedule: Q04DX003 (ip)) of the same molecule?
**A.** 8 of 8

**Q.** What about the survivor count (dose: 12.5 mg/kg/injection, schedule: Q08DX002 (ip)) of the same molecule?
**A.** 8 of 8

**Q.** And the survivor count (dose: 16.0 mg/kg/injection, schedule: Q01DX009 (ip))?
**A.** 8 of 8

**Q.** And the survivor count (dose: 25.0 mg/kg/injection, schedule: Q01DX001 (ip))?
**A.** 8 of 8

**Q.** What about the survivor count (dose: 25.0 mg/kg/injection, schedule: Q03HX008 (ip)) of the same molecule?
**A.** 5 of 8

**Q.** What about the survivor count (dose: 25.0 mg/kg/injection, schedule: Q03HX016 (ip)) of the same molecule?
**A.** 8 of 8

**Q.** And the survivor count (dose: 25.0 mg/kg/injection, schedule: Q04DX003 (ip))?
**A.** 8 of 8

**Q.** What about the survivor count (dose: 25.0 mg/kg/injection, schedule: Q08DX002 (ip)) of the same molecule?
**A.** 8 of 8

**Q.** And the survivor count (dose: 32.0 mg/kg/injection, schedule: Q01DX009 (ip))?
**A.** 7 of 8 and 8 of 8

**Q.** What about the survivor count (dose: 50.0 mg/kg/injection, schedule: Q01DX001 (ip)) of the same molecule?
**A.** 8 of 8

**Q.** And the survivor count (dose: 50.0 mg/kg/injection, schedule: Q03HX008 (ip))?
**A.** 4 of 8

**Q.** What about the survivor count (dose: 50.0 mg/kg/injection, schedule: Q04DX003 (ip)) of the same molecule?
**A.** 8 of 8

**Q.** And the survivor count (dose: 50.0 mg/kg/injection, schedule: Q08DX002 (ip))?
**A.** 8 of 8

**Q.** What about the survivor count (dose: 100.0 mg/kg/injection, schedule: Q01DX001 (ip)) of the same molecule?
**A.** 8 of 8

**Q.** And the survivor count (dose: 100.0 mg/kg/injection, schedule: Q04DX003 (ip))?
**A.** 8 of 8

**Q.** What about the survivor count (dose: 100.0 mg/kg/injection, schedule: Q08DX002 (ip)) of the same molecule?
**A.** 8 of 8

**Q.** What about the survivor count (dose: 200.0 mg/kg/injection, schedule: Q01DX001 (ip)) of the same molecule?
**A.** 8 of 8

**Q.** And the survivor count (dose: 200.0 mg/kg/injection, schedule: Q04DX003 (ip))?
**A.** 8 of 8

**Q.** What about the survivor count (dose: 200.0 mg/kg/injection, schedule: Q08DX002 (ip)) of the same molecule?
**A.** 8 of 8

**Q.** What about the survivor count (dose: 400.0 mg/kg/injection, schedule: Q01DX001 (ip)) of the same molecule?
**A.** 8 of 8

**Q.** What about the survivor count (dose: 400.0 mg/kg/injection, schedule: Q08DX002 (ip)) of the same molecule?
**A.** 8 of 8
